# Experiment: Measurement of emission spectrum
# Assay type: biochemical
molecule,measurement,setting,value
"picALuc30: SEQ ID NO: 51; amino acids 54 to 175 of ALuc30 wt, without the N terminus and C terminus; 13 kDa luciferase (protein, picALuc30, amino acids 54 to 175 of ALuc30 wt, without the N terminus and C terminus; 13 kDa luciferase) KLPGKKLPLEVLKELEANAQKAGCTRGCLICLSHIKCTAKMKKWLPGRCESWEGDKETGQGGIGEAIVDIPEIPGFKELAPMEQFIAQVDLCADCTTGCLKGLANVKCSALLKKWLPSRCAG",wavelength peak,reacted with coelenterazine,482 nm
same,wavelength peak,reacted with coelenterazine h,488 nm
